Our source for the Kd values is article PMC3386182.

The exact form of at least one protein or probe is not confirmed. Tags and fusion partners may be left off the protein sequences shown.

What is called Kd is the equilibrium constant for the complex coming apart.

What all share (test): SPR
Series [1] has as its target T1, Erg1-399 (Homo sapiens (human)) (UniProt P11308).
T1 sequence (looked up): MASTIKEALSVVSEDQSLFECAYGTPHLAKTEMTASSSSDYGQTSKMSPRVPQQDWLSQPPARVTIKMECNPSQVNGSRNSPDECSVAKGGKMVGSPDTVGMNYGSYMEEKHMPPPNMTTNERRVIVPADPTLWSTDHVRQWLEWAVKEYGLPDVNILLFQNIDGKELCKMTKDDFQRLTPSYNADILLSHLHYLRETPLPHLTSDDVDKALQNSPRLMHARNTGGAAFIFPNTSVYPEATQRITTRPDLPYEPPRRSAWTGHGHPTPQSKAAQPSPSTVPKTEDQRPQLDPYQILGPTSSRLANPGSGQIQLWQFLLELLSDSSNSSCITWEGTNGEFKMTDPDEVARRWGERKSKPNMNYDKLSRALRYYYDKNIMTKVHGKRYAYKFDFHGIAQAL
As to conditions: SPR (BIAcore 2000, Ni-NTA chip, protein immobilized, DNA 1-3 uM): 10 mM HEPES pH 7.4, 150 mM NaCl, 0.005% P20, 25 C, 10 ul/min; 1:1 Langmuir fit; recombinant protein; residues 1-399.

The target in series [2] is T2, Erg1-479 (full length Ergp55) (Homo sapiens (human)) (UniProt P11308).
T2 sequence (looked up): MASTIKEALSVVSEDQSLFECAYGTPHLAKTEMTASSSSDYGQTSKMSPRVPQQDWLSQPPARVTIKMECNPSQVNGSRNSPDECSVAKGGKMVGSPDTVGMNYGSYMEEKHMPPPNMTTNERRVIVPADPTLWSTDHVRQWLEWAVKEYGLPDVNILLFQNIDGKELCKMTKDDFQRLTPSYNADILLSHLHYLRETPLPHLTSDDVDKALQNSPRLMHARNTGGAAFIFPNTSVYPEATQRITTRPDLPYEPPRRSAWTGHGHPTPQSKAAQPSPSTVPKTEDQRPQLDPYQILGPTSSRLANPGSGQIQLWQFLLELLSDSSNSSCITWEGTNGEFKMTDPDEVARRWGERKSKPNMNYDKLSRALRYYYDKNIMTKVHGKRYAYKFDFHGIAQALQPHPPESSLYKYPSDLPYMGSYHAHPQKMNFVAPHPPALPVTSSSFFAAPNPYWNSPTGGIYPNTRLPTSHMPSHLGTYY
As to conditions: SPR (BIAcore 2000, Ni-NTA chip, protein immobilized, DNA 1-3 uM): 10 mM HEPES pH 7.4, 150 mM NaCl, 0.005% P20, 25 C, 10 ul/min; 1:1 Langmuir fit; recombinant protein; residues 1-479. In general terms: In SPR one partner is held on a chip, and binding of the other changes the refractive index at the surface.

The target in series [3] is T3, Erg112-399 (Homo sapiens (human)) (UniProt P11308).
T3 sequence (looked up): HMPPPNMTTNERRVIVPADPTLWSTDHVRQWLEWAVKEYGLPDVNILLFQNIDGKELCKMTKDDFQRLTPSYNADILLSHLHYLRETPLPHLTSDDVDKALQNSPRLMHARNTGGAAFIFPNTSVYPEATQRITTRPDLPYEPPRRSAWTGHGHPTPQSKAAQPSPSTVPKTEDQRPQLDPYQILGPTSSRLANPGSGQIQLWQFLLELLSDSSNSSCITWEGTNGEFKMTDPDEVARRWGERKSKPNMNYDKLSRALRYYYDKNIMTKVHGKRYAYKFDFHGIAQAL
The settings on record: SPR (BIAcore 2000, Ni-NTA chip, protein immobilized, DNA 1-3 uM): 10 mM HEPES pH 7.4, 150 mM NaCl, 0.005% P20, 25 C, 10 ul/min, 1:1 Langmuir fit, recombinant protein, residues 112-399.

The target in series [4] is T4, Erg307-399 (Ets domain) (Homo sapiens (human)) (UniProt P11308).
T4 sequence (looked up): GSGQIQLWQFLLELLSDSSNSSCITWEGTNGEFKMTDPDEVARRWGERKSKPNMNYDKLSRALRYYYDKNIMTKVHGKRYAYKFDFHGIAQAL
As to conditions: SPR (BIAcore 2000, Ni-NTA chip, protein immobilized, DNA 1-3 uM): 10 mM HEPES pH 7.4, 150 mM NaCl, 0.005% P20, 25 C, 10 ul/min, 1:1 Langmuir fit, recombinant protein, residues 307-399.

Turning to “TACCGGAAGT (double strand) [E74 promoter DNA]”, the Kd in series [1] amounted to 0.217 µM; in series [2], 0.704 µM; in series [3] it was 0.115 µM; in series [4], 65 nM.

Consider “GACAGGATGTG (double strand) [cfos promoter DNA]”, for which the Kd in series [1] was 196 µM; in series [2], 232 µM; in series [3] (Discussion gives 37 uM), 38 µM; in series [4] (Discussion gives 0.4 uM), 450 nM.
